Experimental data reported in PubChem BioAssay AID540276 (National Center for Advancing Translational Sciences (NCATS), 2011).
About 5,400 (1.8%) of roughly 300,000 compounds were called active. The shares of active, inactive and inconclusive entries below differ from those in the screen. Calls follow the shape of the full dose curve; tested in HEK293 cells. Potencies beside an inconclusive call are fits to weak or partial responses and may not hold up.

Assay: qHTS for inhibitors of binding or entry into cells for Marburg Virus
Details: Marburg virus pseudotyped entry inhibition, cell reporter; series mostly up to 37.8 µM
Potency is read from the fitted curve at half-maximal effect.

Row | Structure (SMILES) | Potency
1 | CCCOc1ccc(Cn2cnc3ccccc32)cc1 | inconclusive: 29.1 µM [inhibitor, single point]
2 | Cc1onc(-c2ccccc2)c1C(=O)Nc1ccc(S(=O)(=O)N2CCCC2)cc1 | inconclusive: 5.62 µM [inhibitor, partial curve, poor fit]
3 | COc1ccc(S(=O)(=O)Nc2ccccc2C(N)=O)cc1OC | inconclusive: 6.31 µM [activator, partial curve, poor fit]
4 | CCc1ccc(OCCNC(=O)c2cccs2)cc1 | inactive
5 | C=CCOc1ccc(/C=C/C(=O)OCC(=O)NCc2cccs2)cc1 | inactive
6 | CC(=O)Oc1c(Cl)c(N2CCOCC2)c(OC(C)=O)c2ccccc12 | inconclusive: 9.2 µM [activator, partial curve, poor fit]
7 | CCC1(C)Cc2c(C#N)c(N)sc(=S)c2CO1 (stereo not given) | inconclusive: 4.47 µM [activator, single point]
8 | COc1cccc(-c2ccnc3c(-c4ccccc4)c(C)nn23)c1 | inconclusive: 6.31 µM [activator, partial curve, poor fit]
9 | Cn1ccnc1SCC(=O)Nc1ccc2ccccc2c1 | inconclusive: 13 µM [inhibitor, single point]
10 | CCCCn1c(NCc2ccccc2NS(=O)(=O)c2ccc(C)cc2)nc2ccccc21 | active: 11.2 µM
11 | Cc1cc(C)cc(-c2nnc(SCC(=O)Nc3cc(C)on3)o2)c1 | inactive
12 | NS(=O)(=O)c1ccc(NC(=S)NCC2CCCO2)cc1 (stereo not given) | inactive
13 | CC(C)CCNC(=O)c1cnn2c(C(F)(F)F)cc(-c3ccco3)nc12 | inconclusive: 14.6 µM [inhibitor, partial curve, poor fit]
14 | Cc1cc(=O)cc(C)n1-c1ccc(Cl)cc1 | inactive
15 | CC(C)NC[C@H](O)COc1cccc2[nH]ccc12 | inconclusive: 29.1 µM [activator, single point]
16 | C=CCNC(=O)c1ccccc1NC(=O)c1cccc2ccccc12 | inconclusive: 7.94 µM [inhibitor, partial curve, poor fit]
17 | COc1ccc(OC(C)C(=O)Nc2ccc(F)cc2F)cc1 (stereo not given) | inconclusive: 6.31 µM [activator, single point]
18 | O=C(Nc1ccc(Cl)c([N+](=O)[O-])c1)c1ccc(NCCCN2CCOCC2)c([N+](=O)[O-])c1 | active: 6.51 µM
19 | C/C(=N\OCC(=O)N/N=C/c1ccccc1O)c1cccs1 | inconclusive: 18.3 µM [inhibitor, partial curve, poor fit]
20 | COc1ccc(CCNC(=S)Nc2ccccc2C)cc1 | inactive

An excerpt from above in order of SMILES length, smallest number first.
Row | Structure (SMILES) | Potency
17 | COc1ccc(OC(C)C(=O)Nc2ccc(F)cc2F)cc1 (stereo not given) | inconclusive: 6.31 µM [activator, single point]
11 | Cc1cc(C)cc(-c2nnc(SCC(=O)Nc3cc(C)on3)o2)c1 | inactive
2 | Cc1onc(-c2ccccc2)c1C(=O)Nc1ccc(S(=O)(=O)N2CCCC2)cc1 | inconclusive: 5.62 µM [inhibitor, partial curve, poor fit]
